Data: US10517862B2, “Fused heterocyclic compound derivative and application thereof” (NHWA PHARMA. CORPORATION, priority 2015, dated 2019)

What follows are compounds tested on mice of Kunming breed (assay: Catalepsy assay in mice). Conditions: ratio of ED50 values, po.
Format: in vivo
Protocol: Healthy mice of Kunming breed (with half male and half female, (22±2) g) were provided by Qinglongshan Animal Cultivation Center, Nanjing.
Instruments: self-made bar-grabbing apparatus: stainless steel bar in mice box, which was 0.3 cm in diameter and […].
Corresponding solvent double-distilled water was administered intragastrically to the negative control group and the model group, corresponding positive drugs were administered intragastrically to the positive drug groups (a small amount of acetic acid was first added and then double-distilled water was added when dissolving), and corresponding dosages of compounds were administered intragastrically to the compound groups for each dosage, with the volume for intragastric administration as 0.1 ml/10 g. At 30 min, 60 min, 90 min after the intragastric administration, the two forepaws of the mice were gently placed on the bars (which were 20 cm in length, 0.3 cm in diameter, and 5.5 cm above the bench), and the hindpaws of the animals were placed on the bottom of the box. The durations of the mice to maintain the posture with the two forepaws on the bars were recorded, and 30 s of spasticity without moving was considered as the positive response. In the case the forepaws of the mice were not put down persistently, the observation was terminated at 60 s. The numbers of animals with positive response in each of the compound dosage groups were counted.
`O=C1CCc2cc(CCCCN3CCC(c4noc5cc(F)ccc45)CC3)cc3c2N1CCC3` [Compound 7] was tested, and the Catalepsy/Apomorphine induced clambering was 54 and the “Catalepsy/MK-801 induced high activity” value was 26.
In the case of `OCCOCCN1CCN(C2=Nc3ccccc3Sc3ccccc32)CC1` [quetiapine, reference compound], the Catalepsy/Apomorphine induced clambering is reported as 396.04 and the “Catalepsy/MK-801 induced high activity” value is reported as 79.21.
In the case of `O=C(CCN1CCC(c2noc3cc(F)ccc23)CC1)c1cc2c3c(c1)CCC(=O)N3CCC2` [Compound 2], the Catalepsy/Apomorphine induced clambering is reported as 37 and the “Catalepsy/MK-801 induced high activity” value is reported as 19.
For `O=C1CCc2ccc(OCCCCN3CCN(c4cccc(Cl)c4Cl)CC3)cc2N1` [aripiprazole, reference compound], the Catalepsy/Apomorphine induced clambering was 11.43 and the “Catalepsy/MK-801 induced high activity” value was 20.00.
For `O=C(CCN1CCC(c2noc3cc(F)ccc23)CC1)c1cc2c3c(c1)CCN3C(=O)CC2` [Compound 12], the Catalepsy/Apomorphine induced clambering was 111 and the “Catalepsy/MK-801 induced high activity” value was 140.
In the case of `O=C1Cc2cc(CCN3CCN(c4nsc5ccccc45)CC3)c(Cl)cc2N1` [ziprasidone, reference compound], the Catalepsy/Apomorphine induced clambering is reported as 82.16 and the “Catalepsy/MK-801 induced high activity” value is reported as 54.29.
In the case of `O=C(CCCN1CCC(c2noc3cc(F)ccc23)CC1)c1cc2c3c(c1)CCN3C(=O)CC2` [Compound 15], the Catalepsy/Apomorphine induced clambering is reported as 416 and the “Catalepsy/MK-801 induced high activity” value is reported as 238.
For `O=C(CCCN1CCC(c2noc3cc(F)ccc23)CC1)c1cc2c3c(c1)CCC(=O)N3CCC2` [Compound 5], the Catalepsy/Apomorphine induced clambering was 152 and the “Catalepsy/MK-801 induced high activity” value was 90.90.
For `O=C(CCCN1CCC(O)(c2ccc(Cl)cc2)CC1)c1ccc(F)cc1` [haloperidol, reference compound], the Catalepsy/Apomorphine induced clambering was 4.89 and the “Catalepsy/MK-801 induced high activity” value was 4.40.
